# Measurements published in patent publication US7009037 (dated 2006).
# Test: general procedure: peptide synthesis; Tenta Gel P RAM, theoretical loading 0.20 meq/g (RAPP POLYMERE GmbH)
# Details: whole synthesis, analytical HPLC
row,Substance,final HPLC purity
1,GATPQDLNTMLNTVGGHQAA-NH2,98%
2,G S D I A G T T S T L Q E Q I G W M T-NH2,90%
3,HIVWASRELERFAVNPGLLEVT-NH2,more than 95%
4,PIVQNIQGQMVHQAISPRTLNAW-NH2,approximately 93%
5,RLIYATRQLQRFAVNPGLLIT-NH2,more than 97%
6,W S A L A G T T S L L Q G Q L G W I T-NH2,more than 97%
7,YAIPQALNTLLNTVGGHQAA-NH2,98%

# Test: peptide synthesis; Tenta Gel P RAM, theoretical loading 0.20 meq/g (RAPP POLYMERE GmbH)
# Details: whole synthesis, analytical HPLC
row,Substance,final HPLC purity
1,FILQNIEGQLVGGGYAISPRTLVAGGGG,more than 94%
2,FILQNIQGQLVGGGYAISPRTLVAG-NH2,more than 97%
